Laboratory results as given in patent publication US4491631A, “Assay method for lipid component, assay composition, and process for production of enzyme used therefor” (Toyo Jozo Kabushiki Kaisha, priority 1981, dated 1985).

Amino acid sequences for entries named in this document (tags omitted). A change or cut given only in a name is not applied to a line headed by its entry.
UniProt P28793: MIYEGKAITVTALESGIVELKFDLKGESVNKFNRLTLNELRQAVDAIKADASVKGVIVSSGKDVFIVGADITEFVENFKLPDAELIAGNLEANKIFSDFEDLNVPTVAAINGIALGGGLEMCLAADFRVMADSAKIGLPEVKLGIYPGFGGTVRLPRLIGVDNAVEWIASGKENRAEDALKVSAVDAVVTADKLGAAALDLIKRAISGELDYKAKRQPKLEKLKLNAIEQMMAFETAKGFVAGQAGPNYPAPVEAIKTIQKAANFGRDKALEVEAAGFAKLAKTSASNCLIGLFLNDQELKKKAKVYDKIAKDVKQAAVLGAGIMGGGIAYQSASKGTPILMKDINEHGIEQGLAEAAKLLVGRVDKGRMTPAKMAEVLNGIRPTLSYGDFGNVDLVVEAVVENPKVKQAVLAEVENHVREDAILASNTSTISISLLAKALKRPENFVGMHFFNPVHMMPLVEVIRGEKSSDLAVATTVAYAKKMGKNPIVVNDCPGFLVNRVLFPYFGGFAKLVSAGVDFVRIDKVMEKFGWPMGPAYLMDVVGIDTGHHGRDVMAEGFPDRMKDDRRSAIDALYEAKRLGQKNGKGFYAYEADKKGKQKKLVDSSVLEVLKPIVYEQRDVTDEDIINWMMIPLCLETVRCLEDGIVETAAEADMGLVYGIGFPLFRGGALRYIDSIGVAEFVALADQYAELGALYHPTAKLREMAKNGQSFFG

Molecular target: T1, 3-hydroxyacyl-CoA dehydrogenase activity of multi-active enzyme (Pseudomonas fragi, UniProt P28793)
T1 construct: Crude enzyme was prepared from microbial cells of Pseudomonas fragi B-0771; endogenous in cells; host or cells: Pseudomonas fragi B-0771 FERM-P No. 5701 (enzyme extracted with lysozyme and purified from its own cells, not recombinant)
Assay: Effect of surface active agents on 3-hydroxyacyl-CoA dehydrogenase activity
Format: biochemical, Pseudomonas fragi B-0771
Conditions: 10 min; 0.1% surface active agent; control 100; read-out: Relative activity
Method: The enzyme solution (50 μl) was added to the above reaction mixture, which was preincubated at 27° C. for 2 minutes, and the mixture was incubated at 37° C. for 10 minutes. 0.5% sodium dodecyl sulfate (2.0 ml) was added to stop the reaction and the absorbency was measured at 550 nm (ΔA550) One unit (1 U) is defined as the amount of enzyme which generates 1 μmole of reduced NAD in one minute. Enzyme activity is defined by the following equation: [formula] (c) Assay method of 3-ketoacyl-CoA thiolase activity:
(10) Effect of surface active agents:
The effect of surface active agents was measured on 3-hydroxyacyl-CoA dehydrogenase activity.

SMILES: CCCCCCCCCCCCCCCC[n+]1ccccc1 [cetylpyridinium chloride]
- activity at 0.1 %: 0%
